Out of some 330,000 compounds screened, about 7,700 (2.3%) were called active. Inconclusive means that the source gave no clear call. Such entries were picked first, then a sample of the others. The call rests on the fitted dose curve; in most records, active means well fitted inhibition curve with a large enough effect; inconclusive means small, poorly fitted or top-dose-only effect, or effect the other way; inactive means flat fitted curve, though single readings scatter. Potencies beside an inconclusive call are fits to weak or partial responses and may not hold up.
Assay: qHTS screen for small molecules that inhibit ELG1-dependent DNA repair in human embryonic kidney (HEK293T) cells expressing luciferase-tagged ELG1; further: nearly all actives have a fitted effect of over 55% in size
Settings: HEK293T ELG1-luciferase reporter, luminescence, 16 h, DNA damage induced by 5-fluorouridine; activity change, negative = inhibition: at 46.1 µM (top of the series)
How it was run: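 HEK293T cells expressing luciferase-tagged ELG1 (2,000/well) received 5-Fluorouridine plus compound or DMSO for 16 hr at 37 °C. Luciferase was read by ONE-Glo luminescence after 30 min at room temperature.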
On the % scale 0 is the no-effect control and ±100 the full control effect; potency means the concentration at half of the fitted maximal effect.

| Compound | Potency | activity change, negative = inhibition |
| --- | --- | --- |
| Cc1nc(Nc2ccc(S(=O)(=O)N3CCCC3)cc2)c2nnn(Cc3ccccc3)c2n1 | inconclusive: 4.61 µM [inhibitor, single point] | – |
| CCN1/C(=C/C=C/c2sc3ccccc3[n+]2CC)Sc2ccccc21 | inconclusive: 12.6 µM [inhibitor, partial curve, poor fit] | – |
| Cc1ccc2c(C)c(C(=O)N3CCN(C4CCS(=O)(=O)C4)CC3)oc2c1C (configuration not stated) | – | inactive: 0% |
| c1ccc2c3c(cc(N4CCOCC4)c2c1)OC1(N2CCOCC2)CCCCC1O3 (configuration not stated) | inconclusive: 23.1 µM [inhibitor, partial curve] | – |
| O=C(COc1ccc(F)cc1)Nc1cc(Cl)ccc1-n1cncn1 | inconclusive: 29.1 µM [activator, single point] | – |
| O=S(=O)(c1cccc2nsnc12)N1CCN(C/C=C/c2ccccc2)CC1 | inconclusive: 29.1 µM [inhibitor, single point] | – |
| COP(=O)(OC)c1nc(-c2cccc3ccccc23)oc1NCc1ccccc1 | inconclusive: 32.6 µM [inhibitor, single point] | – |
| O=C(c1cc(Cl)c(=O)n(Cc2ccc(Cl)cc2)c1)N1CCOCC1 | – | inactive: -8.12% |
| O=C(CN1C(=O)S/C(=C\c2ccc(F)cc2)C1=O)NC1C=CS(=O)(=O)C1 (configuration not stated) | inconclusive: 5.8 µM [activator, partial curve] | – |
| O=c1c2ccccc2nc2c3ccccc3c(NCc3ccccn3)nn12 | inconclusive: 13 µM [inhibitor, partial curve, poor fit] | – |
| COc1ccccc1/C=C/C(=O)Nc1ccc(S(=O)(=O)Nc2cc(C)nc(C)n2)cc1 | – | inactive: 17.6% |
| CCN(CC(=O)Nc1ccc(NC(C)=O)cc1)C(=O)c1cn(-c2ccccc2)nc1-c1cccs1 | inconclusive: 18.3 µM [inhibitor, single point] | – |
| COc1ccccc1N1CCN(C(=O)CN2C(=O)c3cccc4cccc(c34)C2=O)CC1 | inconclusive: 23.1 µM [inhibitor, single point] | – |
| COc1ccc(NC(=O)c2sc(-c3ccccc3)nc2C)c(OC)c1 | inconclusive: 3.26 µM [inhibitor, single point] | – |
| CCn1c(SCc2ccccc2)nc2cc(OC)c(OC)cc2c1=O | inconclusive: 23.1 µM [inhibitor, single point] | – |
| Cc1nn2cc(-c3ccc(-c4ccccc4)cc3)nc2s1 | inconclusive: 1.3 µM [activator, partial curve] | – |
| Cc1cc(C)n(Cc2ccc(NC(=O)c3nn(C)cc3[N+](=O)[O-])cc2)n1 | inconclusive: 6.51 µM [inhibitor, full curve] | – |

2 compounds picked at random from the list so far, as already listed:

| Compound | Potency | activity change, negative = inhibition |
| --- | --- | --- |
| O=S(=O)(c1cccc2nsnc12)N1CCN(C/C=C/c2ccccc2)CC1 | inconclusive: 29.1 µM [inhibitor, single point] | – |
| CCn1c(SCc2ccccc2)nc2cc(OC)c(OC)cc2c1=O | inconclusive: 23.1 µM [inhibitor, single point] | – |

— PubChem BioAssay AID504467 (National Center for Advancing Translational Sciences (NCATS), 2011)
